Data published in the supplement of paper PMC10735217.
Where a name gives a salt, the structure may show the parent alone. The list shows a part of the results. Repeats in this data set agree poorly, so a single value says little.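 In a drug-repurposing library screen, luminescence reads luciferase driven by eight TEAD-binding elements, stably integrated into human kidney-derived cells. Compounds scoring over five robust Z scores above the plate mean are called hits.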

System: HEK293A TEAD-LUC reporter
Assay: TEAD-luciferase reporter activity (YAP activation), robust Z score vs plate; higher = stronger YAP/TEAD activation
Conditions: 24 h

Structure (SMILES) | TEAD-luciferase reporter activity (compound concentration: 200 nM) | TEAD-luciferase reporter activity (compound concentration: 2 uM) | TEAD-luciferase reporter activity (compound concentration: 10 uM)
CN(C)CCOc1ccc2c(=O)c3ccc(OCCN(C)C)cc3oc2c1 | inactive: 1.51 | inactive: 0.787 | inactive: -0.233
COC(=O)C1=C(C)NC(C)=C(C(=O)O[C@@H]2CCN(Cc3ccccc3)C2)C1c1cccc([N+](=O)[O-])c1 (stereo not given in full) [Pharmaprojects No. 2106] | inactive: 0.779 | inactive: -1.99 | inactive: -0.717
O=C1C[C@@H]2CCN(C(=O)c3ccc4c(c3)OCO4)C[C@@H]2CCN1 | active: 6.18 | – | inactive: 2.02
CN1CCN(c2ccc3[nH]c(-c4ccc5[nH]c(-c6ccc(O)cc6)nc5c4)nc3c2)CC1 | inactive: -0.588 | inactive: -0.43 | inactive: -1.21
O=C(O)c1cn2c3c(c(N4CCN(c5ccccn5)CC4)c(F)cc3c1=O)OCC2CF (stereo not given) | inactive: -1.46 | inactive: -0.725 | inactive: 2.96
CC(=O)OCCN1CCN(CC/C=C2/c3ccccc3Sc3ccc(Cl)cc32)CC1 [Zuclopenthixol acetate] | inactive: -1 | inactive: 0.00119 | inactive: -0.37
O=c1[nH]nc(OCCCc2ccc(Cl)cc2)c(NCc2cccnc2)c1Br [parogrelil hydrochloride] | inactive: 0.732 | inactive: -0.612 | inactive: -0.617
COc1ccc2nc3cc(Cl)ccc3c(Nc3cc(CN4CCCC4)c(O)c(CN4CCCC4)c3)c2n1 [pyronaridine] | inactive: -0.558 | active: 8.66 | inactive: -0.394
Cc1c(F)cc(C(=O)NC2CC2)cc1-c1ccc(C(=O)NCC(C)(C)C)cn1 [losmapimod] | inactive: -0.934 | inactive: -1.62 | inactive: -0.613
CC(CCc1ccc(O)cc1)NCC(O)c1ccc(O)cc1 (stereo not given) [butopamine] | inactive: 0.296 | inactive: -1.42 | inactive: 0.467
O=C(O)c1ccc(NC2OCC(O)C(O)C2O)cc1 (stereo not given) [benaxibine] | inactive: -0.868 | inactive: -0.0448 | inactive: 1.4
COc1cc(CCN(C)CCCNC(=O)C/C=C/c2ccc(-n3ccnc3)cc2)cc(OC)c1 | inactive: -1.32 | inactive: -1.71 | inactive: -0.0301
Cc1ccc([C@@H]2O[C@H](CO)[C@@H](O)[C@H](O)[C@H]2O)cc1Cc1ccc(-c2ccc(F)cc2)s1 [Canagliflozin] | inactive: -0.896 | inactive: -3.32 | inactive: -2.37
C[C@H](C#Cc1ccc(Oc2ccc(F)cc2)o1)N(O)C(N)=O | inactive: -1.69 | inactive: -0.107 | inactive: 1.58
O=C(c1ccc2c(c1)OCO2)N1CCC(N2CCOCC2=O)CC1 | inactive: 2.07 | – | inactive: 0.943
CCN(CC)CCCC(C)Nc1ccnc2cc(Cl)ccc12 (stereo not given) [chloroquine, DualTPharma] | inactive: -0.0598 | – | inactive: 3.54
CCC(=O)O[C@]1(C(=O)SCF)[C@H](C)C[C@H]2[C@@H]3C[C@H](F)C4=CC(=O)C=C[C@]4(C)[C@@]3(F)[C@@H](O)C[C@@]21C [Fluticasone propionate] | – | inactive: -0.214 | –
CN(C)CCOCCOC(=O)N1c2ccccc2Sc2ccccc21 | inactive: -1.18 | inactive: -0.867 | inactive: -0.383
CCCS(=O)(=O)N1CCN(Cc2ccc(NC(=O)c3ccc(-c4cc(NC(=O)C5CC5)ccc4OC(F)(F)F)cc3)cc2)CC1 | inactive: -0.303 | inactive: 0.733 | inactive: 2.39

Some of the entries above in a different format.
Structure (SMILES),TEAD-luciferase reporter activity (compound concentration: 200 nM),TEAD-luciferase reporter activity (compound concentration: 2 uM),TEAD-luciferase reporter activity (compound concentration: 10 uM)
CN1CCN(c2ccc3[nH]c(-c4ccc5[nH]c(-c6ccc(O)cc6)nc5c4)nc3c2)CC1,inactive: -0.588,inactive: -0.43,inactive: -1.21
O=C(O)c1cn2c3c(c(N4CCN(c5ccccn5)CC4)c(F)cc3c1=O)OCC2CF (stereo not given),inactive: -1.46,inactive: -0.725,inactive: 2.96
CC(=O)OCCN1CCN(CC/C=C2/c3ccccc3Sc3ccc(Cl)cc32)CC1 [Zuclopenthixol acetate],inactive: -1,inactive: 0.00119,inactive: -0.37
O=c1[nH]nc(OCCCc2ccc(Cl)cc2)c(NCc2cccnc2)c1Br [parogrelil hydrochloride],inactive: 0.732,inactive: -0.612,inactive: -0.617
COc1ccc2nc3cc(Cl)ccc3c(Nc3cc(CN4CCCC4)c(O)c(CN4CCCC4)c3)c2n1 [pyronaridine],inactive: -0.558,active: 8.66,inactive: -0.394
Cc1c(F)cc(C(=O)NC2CC2)cc1-c1ccc(C(=O)NCC(C)(C)C)cn1 [losmapimod],inactive: -0.934,inactive: -1.62,inactive: -0.613
CC(CCc1ccc(O)cc1)NCC(O)c1ccc(O)cc1 (stereo not given) [butopamine],inactive: 0.296,inactive: -1.42,inactive: 0.467
O=C(O)c1ccc(NC2OCC(O)C(O)C2O)cc1 (stereo not given) [benaxibine],inactive: -0.868,inactive: -0.0448,inactive: 1.4
COc1cc(CCN(C)CCCNC(=O)C/C=C/c2ccc(-n3ccnc3)cc2)cc(OC)c1,inactive: -1.32,inactive: -1.71,inactive: -0.0301
Cc1ccc([C@@H]2O[C@H](CO)[C@@H](O)[C@H](O)[C@H]2O)cc1Cc1ccc(-c2ccc(F)cc2)s1 [Canagliflozin],inactive: -0.896,inactive: -3.32,inactive: -2.37
C[C@H](C#Cc1ccc(Oc2ccc(F)cc2)o1)N(O)C(N)=O,inactive: -1.69,inactive: -0.107,inactive: 1.58
O=C(c1ccc2c(c1)OCO2)N1CCC(N2CCOCC2=O)CC1,inactive: 2.07,–,inactive: 0.943
"CCN(CC)CCCC(C)Nc1ccnc2cc(Cl)ccc12 (stereo not given) [chloroquine, DualTPharma]",inactive: -0.0598,–,inactive: 3.54
CCC(=O)O[C@]1(C(=O)SCF)[C@H](C)C[C@H]2[C@@H]3C[C@H](F)C4=CC(=O)C=C[C@]4(C)[C@@]3(F)[C@@H](O)C[C@@]21C [Fluticasone propionate],–,inactive: -0.214,–

(list continues)

Structure (SMILES) | TEAD-luciferase reporter activity (compound concentration: 200 nM) | TEAD-luciferase reporter activity (compound concentration: 2 uM) | TEAD-luciferase reporter activity (compound concentration: 10 uM)
CCC(=C(c1ccc(OCCN(C)C)cc1)c1ccc(OP(=O)(O)O)cc1)c1ccc(C(C)C)cc1 [Miproxifene phosphate] | inactive: 0.0527 | inactive: -1.43 | inactive: 0.405
OC(CN1CCCCC1)c1cc(-c2ccccc2)on1 (stereo not given) [perisoxal citrate] | inactive: 0.183 | inactive: -1.02 | inactive: 2.19
CCOC(=O)Nc1ccc2c(c1)N(C(=O)CCN1CCOCC1)c1ccccc1S2 [moracizine] | inactive: -1.2 | inactive: -1.52 | inactive: 0.943
CN(CC(=O)NO)C(=O)[C@@H]1CCCC[C@@H]1C(=O)O | inactive: 0.533 | inactive: -0.636 | inactive: 3.89
CCC(C)(C)C(=O)C(=O)N1CCC[C@H]1C(=O)OCCCc1cccnc1 | inactive: -0.51 | inactive: -0.843 | inactive: 3.7
OCCN1C[C@H](O)[C@@H](O)[C@H](O)[C@H]1CO | inactive: -0.444 | – | inactive: 0.867
OCCN1C[C@H](O)[C@@H](O)[C@H](O)[C@H]1CO [miglitol] | – | inactive: 0.191 | –
CCOC(=O)CC(=O)N1CCSC1COc1ccccc1OC (stereo not given) [Moguisteine] | inactive: -1.34 | inactive: 1.54 | inactive: 2.35
CC1(C)S[C@@H]2[C@H](NC(=O)C3(N)CCCCC3)C(=O)N2[C@H]1C(=O)O [ciclacillin] | inactive: 0.653 | inactive: 2.39 | inactive: 2.96
C/N=c1/[nH]cc(-c2ccc3c(=O)c(C(=O)O)cn(C4CC4)c3c2C)cc1C | inactive: 1.58 | inactive: 0.115 | inactive: -0.149
CC(=O)[C@@]1(O)CCC2C3CCC4=CC(=O)CCC4(C)C3CCC21C (stereo not given in full) | inactive: 1.12 | inactive: -0.424 | inactive: 2.4
CC(=O)NC(CC(=O)O)C(=O)NC(CCC(=O)O)C(=O)O (stereo not given) | inactive: -1.2 | inactive: -0.0933 | inactive: 0.501
FC(F)(F)c1ccc2c(c1)N(CCCN1CCN(C34CC5CC(CC(C5)C3)C4)CC1)c1ccccc1S2 | inactive: 1.11 | inactive: -1.38 | inactive: 0.778
O=c1[nH]c(=O)n([C@H]2C[C@H](OCc3ccccc3)[C@@H](CO)O2)cc1C(F)(F)F | inactive: 0.544 | inactive: -0.771 | inactive: 0.624
COc1cnc(-n2cnc(C)n2)c2c1c(C(=O)C(=O)N1CCN(C(=O)c3ccccc3)CC1)cn2COP(=O)(O)O [Fostemsavir] | inactive: -0.832 | inactive: -0.999 | inactive: 0.845
CCc1cccc(N(C)C(=N)Nc2cccc3ccccc23)c1 | inactive: 0.189 | inactive: 1.29 | inactive: -0.149
CC(C)=CCOc1cc(NC(=O)c2ccccc2C)ccc1Cl | inactive: 0.0687 | inactive: 0.578 | inactive: -0.634
CC(C)(Oc1ccc(Cl)cc1)C(=O)OC(COC(=O)c1cccnc1)COC(=O)c1cccnc1 [Binifibrate] | inactive: -0.523 | inactive: -0.946 | inactive: 3.44
COC(=O)c1cc(CCc2cc(OC)ccc2OC)ccc1O | inactive: -0.63 | inactive: -1.15 | inactive: -0.713

Structure (SMILES) | TEAD-luciferase reporter activity (compound concentration: 200 nM) | TEAD-luciferase reporter activity (compound concentration: 2 uM) | TEAD-luciferase reporter activity (compound concentration: 10 uM)
O=C1Nc2ccccc2CC12CN(CC1CCCC1)C2 | inactive: 2.91 | – | inactive: 0.894
CC(=O)N[C@@H](CSC/C=C(\C)CC/C=C(\C)CCC=C(C)C)C(=O)O | inactive: -1.01 | – | inactive: 2.26
CC(=O)N[C@@H](CSC/C=C(\C)CC/C=C(\C)CCC=C(C)C)C(=O)O [N-Acetyl-S-farnesyl-L-cysteine] | – | inactive: -2.75 | –
CCCCCCCCN=c1ccn(CCCCCCCCCCn2ccc(=NCCCCCCCC)cc2)cc1 [octenidine] | inactive: 3.43 | inactive: 1.26 | inactive: -1.39
Oc1cc(O)c2cc(O)c(-c3cc(O)c(O)c(O)c3)[o+]c2c1 | inactive: -1.46 | inactive: -0.692 | inactive: 1.59
COCCCS(=O)(=O)c1ccc(-c2ccc(CCN3CCC[C@@H]3C)cc2)cc1 | inactive: -1.02 | inactive: 0.27 | inactive: -1.32
CCOP(=O)(CCCCCCOc1ccc(Cl)cc1OC)OCC | inactive: 0.222 | inactive: -0.71 | inactive: 0.815
CCC(C)(C)/N=C(/NC#N)N[C@H]1c2cc(C#N)ccc2OC(C)(C)[C@@H]1O | inactive: 1.4 | inactive: -0.379 | inactive: -0.798
CN(CC(=O)O)C(=N)N [Creatine] | inactive: 0.234 | inactive: 1.63 | inactive: 1.33
O=C(c1ccc2c(c1)OCO2)N1CCC(N2CCNC2=O)CC1 | inactive: 2.76 | – | inactive: 2.54
COc1ccc([C@]2(C#N)CC[C@H](C(=O)O)CC2)c2c1OCCO2 | inactive: 0.275 | inactive: 0.0992 | inactive: 0.51
CCC(c1ccccc1)c1noc(CCN(CC)CC)n1 (stereo not given) | inactive: 0.0654 | inactive: -1.51 | inactive: -0.372
O=C(O)Cc1ccc2c(c1)C(=O)c1ccccc1CO2 [Isoxepac] | inactive: -0.981 | inactive: -0.72 | inactive: -1.08
CN1CCN(c2ccc(Nc3ncc4cc(C#N)c(=O)n(C5CCCC5)c4n3)cc2)CC1 | inactive: 1.25 | inactive: -1 | inactive: -0.0644
COc1ccc(-c2cc(C(F)F)nn2-c2ccc(S(N)(=O)=O)cc2)cc1F | inactive: -0.417 | inactive: 0.00421 | inactive: 2.45
O=C(Nc1cccc(O)c1)c1ccc(O)c(O)c1 | inactive: 1.62 | inactive: 4.29 | inactive: -0.0635
CCCCCCCCCCCC(=O)c1ccc(OCC[N+](C)(C)Cc2ccccc2)cc1 | inactive: 2.7 | inactive: 0.925 | inactive: 3.4
CCOC(=O)C(C)=O [Ethyl pyruvate] | inactive: -0.717 | inactive: -0.741 | inactive: 1.1
